Test results: PMC4703986
Results are given in words; binding and its absence hold for the method and conditions named. A result given as binding can be weak or reduced; the word gives no strength. For some assays here: Sequences can lack the tags named with a protein.

Sequences of proteins named here, by UniProt entry; tags and fusion partners are left off.
UniProt Q9SVD7: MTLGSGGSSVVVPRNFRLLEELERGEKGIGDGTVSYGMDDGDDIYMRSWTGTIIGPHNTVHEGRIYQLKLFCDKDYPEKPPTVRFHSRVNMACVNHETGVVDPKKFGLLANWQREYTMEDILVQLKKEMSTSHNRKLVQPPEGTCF
UniProt Q9SJ44: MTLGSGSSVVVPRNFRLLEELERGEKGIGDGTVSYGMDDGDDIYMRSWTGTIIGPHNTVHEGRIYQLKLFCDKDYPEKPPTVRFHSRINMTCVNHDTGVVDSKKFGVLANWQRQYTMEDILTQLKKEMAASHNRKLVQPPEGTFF
UniProt Q9CAB6: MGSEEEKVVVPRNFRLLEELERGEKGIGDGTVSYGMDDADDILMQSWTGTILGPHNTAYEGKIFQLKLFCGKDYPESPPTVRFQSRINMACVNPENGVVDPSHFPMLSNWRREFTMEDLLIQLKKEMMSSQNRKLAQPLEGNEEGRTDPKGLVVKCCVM
UniProt Q93YP0: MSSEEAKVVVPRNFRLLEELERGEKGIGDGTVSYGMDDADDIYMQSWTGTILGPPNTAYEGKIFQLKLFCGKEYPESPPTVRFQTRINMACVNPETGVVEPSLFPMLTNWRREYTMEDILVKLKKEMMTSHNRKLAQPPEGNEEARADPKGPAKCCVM
UniProt Q15819: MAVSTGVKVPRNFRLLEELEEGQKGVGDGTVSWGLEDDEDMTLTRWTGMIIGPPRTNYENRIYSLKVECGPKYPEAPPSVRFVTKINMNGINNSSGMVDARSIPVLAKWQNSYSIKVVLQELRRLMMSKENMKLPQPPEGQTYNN
UniProt Q13404: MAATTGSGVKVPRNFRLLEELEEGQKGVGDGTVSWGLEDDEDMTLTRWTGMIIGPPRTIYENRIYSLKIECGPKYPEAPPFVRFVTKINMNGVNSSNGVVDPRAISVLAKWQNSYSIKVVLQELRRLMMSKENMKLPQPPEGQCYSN

Tests used:
Assay in all cases: two-hybrid; yeast strain PJ69-4a co-transformed with one Gal4AD (pGAD424) and one Gal4BD (pGBT9) plasmid; growth on synthetic complete medium lacking Trp, Leu and His with 3-AT (5 mM 3-AT named for Figure 2A); 3 days
[1] = biological target: Arabidopsis Uev1D (AtUev1D), yeast two-hybrid fusion (Arabidopsis) (UniProt Q9SVD7)
[2] = biological target: Arabidopsis Uev1C (AtUev1C), yeast two-hybrid fusion (Arabidopsis) (UniProt Q9SJ44)
[3] = biological target: T1, yeast Uev1 (yMms2), yeast two-hybrid fusion (budding yeast (S. cerevisiae)) (UniProt P53152)
T1 sequence: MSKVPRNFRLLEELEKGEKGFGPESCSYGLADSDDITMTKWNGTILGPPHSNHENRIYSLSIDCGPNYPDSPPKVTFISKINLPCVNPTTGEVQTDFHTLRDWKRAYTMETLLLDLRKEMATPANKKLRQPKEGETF

[4] = biological target: Arabidopsis Uev1B (AtUev1B), yeast two-hybrid fusion (Arabidopsis) (UniProt Q9CAB6)
[5] = biological target: Arabidopsis Uev1A (AtUev1A), yeast two-hybrid fusion (Arabidopsis) (UniProt Q93YP0)
[6] = biological target: human Mms2 (hMms2), yeast two-hybrid fusion (human) (UniProt Q15819)
[7] = biological target: human Uev1 (hUev1), yeast two-hybrid fusion (human) (UniProt Q13404)

| binding [1] | binding [2] | binding [3] | binding [4] | binding [5] | binding [6] | binding [7] | Substance |
| --- | --- | --- | --- | --- | --- | --- | --- |
| binds | binds | binds | binds | binds | binds | binds | BdUbc13A (Brachypodium distachyon Ubc13A), yeast two-hybrid fusion (from UniProt I1HGH6) (enzyme) |
|  |  | binds |  |  |  |  | BdUbc13B (Brachypodium distachyon Ubc13B), yeast two-hybrid fusion (enzyme) |
